Measured values from PubChem BioAssay AID488835 (Broad Institute, 2010).
The whole screen tested about 1,400 compounds, of which about 140 (10%) were called active.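 The calls were made as follows: active = Half-maximal inhibitory dose from the fit at or below ten times the top valid tested dose; inconclusive = Invalid fit, or flat curve showing 30 to 70% inhibition; inactive = the rest.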 Only a part is listed here, and it is no random draw. Measured potencies and affinities stand elsewhere.

Sequences of proteins named here, by UniProt entry; tags and fusion partners are left off. Residues count along the entry.
UniProt Q9H3R0, 1-420 limits assumed: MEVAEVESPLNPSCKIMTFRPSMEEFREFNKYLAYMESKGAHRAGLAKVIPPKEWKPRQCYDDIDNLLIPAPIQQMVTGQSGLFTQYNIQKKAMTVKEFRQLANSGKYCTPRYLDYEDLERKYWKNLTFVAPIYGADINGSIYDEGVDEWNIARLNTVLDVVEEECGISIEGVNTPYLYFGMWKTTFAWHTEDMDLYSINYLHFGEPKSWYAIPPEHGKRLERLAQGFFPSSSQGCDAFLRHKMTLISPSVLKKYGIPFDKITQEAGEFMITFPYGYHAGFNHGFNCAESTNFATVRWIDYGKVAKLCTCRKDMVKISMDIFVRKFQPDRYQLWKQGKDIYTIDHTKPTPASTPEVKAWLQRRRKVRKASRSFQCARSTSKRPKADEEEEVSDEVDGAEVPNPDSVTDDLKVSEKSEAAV

These compounds were tested against Lysine-specific demethylase 4C (Homo sapiens) (UniProt Q9H3R0) (assay: GASC-1 (JMJD2C) histone demethylase inhibitors, dose response, biochemical, DELFIA europium, cherry-picked samples (AID 488835;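 also: signal is the H3K9me2 demethylation product detected by a dimethyl-specific antibody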)). Conditions: GST-JMJD2C(1-420), H3K9me3 demethylation; at 6 µM (top of the series) unless noted.

Activity change, negative = inhibition, inactive:
COc1ccc(NC(=O)N(C)C[C@H]2Oc3c(NS(=O)(=O)c4cccs4)cccc3C(=O)N([C@H](C)CO)C[C@@H]2C)cc1 7.31%
N#CCCCCN1c2cccc3cccc(c23)S1(=O)=O 2.59%
COc1ccc(NC(=O)NC(C)c2ccc3c(c2)OCO3)c(OC)c1 (stereo not given) -8.39%
COc1cccc(S(=O)(=O)Nc2cccc(C(=O)N3CCCCCC3)c2)c1 6.4%
O=C(CN1C(=O)NC2(CCOc3ccccc32)C1=O)c1ccc[nH]1 (stereo not given) -6.54%
O=C(O)CCC(=O)Nc1nc2nc(-c3ccccc3)cc(-c3ccccc3)n2n1 0.643%
COc1ccc(CCC(=O)Nc2sccc2C#N)cc1 -2.95%
CC(C)=CCN1CCN(Cc2cn[nH]c2C2CCCCC2)CC1CCO (stereo not given) -1.15%
O=[N+]([O-])c1ccc(/C=[N+](\[O-])[C@@H]2CCCC[C@@H]2/[N+]([O-])=C/c2ccc([N+](=O)[O-])o2)o1 2.35%
CC[C@]12c3[nH]c4ccccc4c3CCN1C(=O)C(CC(=O)NCCCOC)C[C@@H]2C(=O)N1CCN(C(=O)c2ccco2)CC1 (stereo not given in full) 0.551%
Cc1ccccc1-n1nc(C)c2cc(C(=O)N3CCN(S(=O)(=O)c4ccc(F)cc4)CC3)sc21 6.98%
CC(=O)c1c(C(C)=O)c(C)n(NC(=O)c2ccncc2)c1C 3.24%
COc1ccc(/C=C2\Sc3ccc(C(=O)N4CCCC4)cc3N(C)C2=O)cc1OC -8.78%
CCOc1ccccc1Nc1nc2ccccc2n2cnnc12 0.232%
O=C(COC(=O)CCC(=O)c1cccs1)Nc1ccc(S(=O)(=O)N2CCOCC2)cc1 7.2%
COc1ccc(-c2n[nH]c(=S)n2C2CCCCC2)cc1 5.73%
Cc1cc(Cl)ccc1OCC(=O)N1CCCCC1 5.65%
O=S(=O)(NCCSCc1ccc(Cl)c(Cl)c1)c1ccc2c(c1)OCCO2 0.477%
CN(C)c1nc(C(=O)Nc2ccccc2)nc(N(C)C)n1 -7.21%
O=C(CCc1ccccc1)c1ccc2c(c1)OCCCO2 8.16%
COc1ccc(NS(=O)(=O)c2cccc(C(=O)OCC(=O)Nc3cc(C)on3)c2)cc1 2.59%
Cc1onc(-c2ccccc2)c1C(=O)Nc1c(C)n(C)n(-c2ccccc2)c1=O 1.03%
COc1ccc(N(CC(=O)Nc2ccc(S(=O)(=O)N3CCCC3)cc2)S(C)(=O)=O)cc1OC 1.62%
CC(=O)OCC1OC(OC2C[C@]3(C)C(CC(O)C4C([C@](C)(CCC=C(C)C)OC5OC(CO)C(O)C(O)C5O)CC[C@]43C)[C@@]3(C)CCC(O)C(C)(C)C23)C(O[C@@H]2OC(C)C(O)C(O)C2O)C(O)C1O (stereo not given in full) 5.45%
Cc1occc1-c1nnc(SCC(=O)c2cc3ccccc3oc2=O)o1 -0.848%
COc1ccc(OC)c(C2/C(=C(\O)c3ccc(OC)c(Cl)c3)C(=O)C(=O)N2CCN(C)C)c1 (stereo not given) -4.79%
Cc1cccc(NC(=O)CSc2cccc3cccnc23)c1 3.6%
O=C(Nc1ccccn1)c1ccc(C(=O)c2ccccc2)cc1 6.74%
COCCn1c(C(C)C)nc2sc3ccccc3c(=O)c2c1=O 5.81%
CCC(=O)N1CCc2cc(S(=O)(=O)CCC(=O)Nc3cccc(F)c3)ccc21 -1.52%
CCc1ccc(NC(=O)C/C(C)=N/NC(=O)COc2ccc(C)cc2Br)cc1 1.72%
Cc1ccccc1NC(=O)C1CC(=O)OC12CCOC(C)(C)C2 (stereo not given) 3.41%
Cc1ccc(C(=O)Oc2csc(=S)n2C(=O)c2ccc(C)cc2)cc1 14.2%
O=c1cnnc(Nc2ccccc2)[nH]1 4.31%
COc1ccc(CN2CCNC(=O)C2CC(=O)NCc2csc(C(C)C)n2)c(OC)c1 (stereo not given) -5.09%
COc1ccc(CCNCCN2CCOCC2)cc1 -10.6%
CCc1ccc(CCC(=O)Nc2sc3c(c2C#N)CCCC3)o1 -0.132%
COc1ccc2cc(Br)ccc2c1CC(=O)NCCCN1CCOCC1 7.11%
CC(=O)c1nnn(-c2nc(N3CCCC3)nc(N(c3ccccc3)c3ccccc3)n2)c1C -0.754%
O=C(NC1CCCCC1)NC1C2CC3CC(C2)CC1C3 (stereo not given) 3.19% [at 1.6 µM]
COc1ccc(C2CC(=O)C=C(NNS(=O)(=O)c3ccc(C)cc3)C2)cc1 (stereo not given) 0.334%
CCC(=O)Nc1ccc(NC(=O)Cc2ccccc2)cn1 -1.91% [at 1.6 µM]
Cc1cc(C(F)(F)F)nn1C(=O)c1cccnc1Cl -8.2%
CC(=O)Nc1ccc2nc(CN3CCC(CO)(CCc4ccccc4)CC3)ccc2c1 -2.53%
COc1ccccc1CNC(=O)c1cc(-c2ccccc2)nn1CC1CC(c2cccnc2)=NO1 (stereo not given) -1.26%
Cc1cccc(N2C(=O)C3C4C=CC(C4)C3C2=O)c1 (stereo not given) 9.08%
CN(C)/C=C1\C(=O)NN=C1c1ccccc1 -4.71%
O=C(Cn1cnc2c(OCc3ccccc3)ncnc21)NCCN1CCOCC1 -2.74%
CC[C@@]1(C(=O)OC)N[C@H](CN(C)C(=O)Nc2ccc(Cl)cc2)[C@@H]2C(=O)N(Cc3ccccc3)C(=O)[C@@H]21 2.99%
CCn1c(SCC(=O)c2ccc(C)cc2)nnc1-c1ccoc1C 3.07%
O=C(Nc1ccccc1N1CCCCC1)c1cccc(F)c1 -3.69%
CN(C)CCN(C(=O)/C=C/c1cccs1)c1nc2ccc(F)cc2s1 5.54%
CCOc1ccc(NC(=O)NC(=O)N(C(C)C)S(C)(=O)=O)cc1 -0.645%
CCO[C@@H]1OC(C(=O)NC2CC2)=C[C@H](c2c[nH]c3ccccc23)[C@H]1CCCO -4.07%
CCCCC(=O)Nc1ccccc1N1CCN(c2ccc(F)cc2)CC1 -2.31%

Some of these compounds in order of count of non-hydrogen atoms, rising.
Activity change, negative = inhibition, inactive:
N#CCCCCN1c2cccc3cccc(c23)S1(=O)=O 2.59%
CCn1c(SCC(=O)c2ccc(C)cc2)nnc1-c1ccoc1C 3.07%
COc1ccc(NC(=O)NC(C)c2ccc3c(c2)OCO3)c(OC)c1 (stereo not given) -8.39%
COc1ccc(/C=C2\Sc3ccc(C(=O)N4CCCC4)cc3N(C)C2=O)cc1OC -8.78%
CC(=O)OCC1OC(OC2C[C@]3(C)C(CC(O)C4C([C@](C)(CCC=C(C)C)OC5OC(CO)C(O)C(O)C5O)CC[C@]43C)[C@@]3(C)CCC(O)C(C)(C)C23)C(O[C@@H]2OC(C)C(O)C(O)C2O)C(O)C1O (stereo not given in full) 5.45%
